The conditions of data set [1]: Study scP-01-002: 80 mg SC as 30 mg over first hour then 12.5 mg per hour over 4 hours vs IV 40 mg x 2.
For data set [2] the following is noted: population PK-PD model, patients with chronic heart failure; to be divided by factor FER.

Structures are written as SMILES.

For `NS(=O)(=O)c1cc(C(=O)O)c(NCc2ccco2)cc1Cl` [furosemide, 4-chloro-2-(furan-2-ylmethylamino)-5-sulfamoyl-benzoic acid], the “Bioequivalence of SC infusion to IV on AUC0-2, AUC0-4 and AUC0-6” value in data set [1] is “fell outside on the lower bound of the 80.00%-125.00% BE limits”. In data set [1] (limits 80.00-[…]), the “Bioequivalence of SC infusion to IV on AUC0-8, AUClast and AUCinf” value is reported as “BE to the IV, LD”. For the same molecule, the “IC50, furosemide excretion rate into urine that provides 50% of maximum urine output rate” value in data set [2] was 1,735,300 ng/hr.
